These results are taken from patent US20160216269A1 (BIOCARE MEDICAL, published 2016).

The chains behind the UniProt entries cited, without tags or fusion partners. Residues count along the entry.
UniProt P56693, residues 147-253: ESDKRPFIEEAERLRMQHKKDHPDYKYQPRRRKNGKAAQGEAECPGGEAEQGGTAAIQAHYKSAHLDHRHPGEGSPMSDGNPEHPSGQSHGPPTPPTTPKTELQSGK

In the assay the target is human SOX10 protein (human) (UniProt P56693). Put plainly: ELISA on recombinant SOX10, Western blot, IHC on human tissues.

These are yes or no findings as the source states them, for the method shown. Some binding calls cover weakened binding; strength is not graded here.

B1: mouse monoclonal anti-SOX10 antibody BC34 (antibody, V domains shown)
VH: QVTLKESGPGILQPSQTLSLTCSFSGFSLSTFLIGVGWIRQPSGKGLEWLAHIWWNDNKYYNTALKNRLTISKDTSNNQVFLKIASVDTTDTATYYCVRMAGIGGTDAMDYWGQGTSVTVSS
VL: DIVLTQSPASLAVSLGQRATISCRASEIVEYYGTNLLQWYQQKPGQPPKLLIYAASNVESGVPARFSGSGSGTDFSLNIHPVEEDDIAIYFCQQSRKVPWTFGGGTKLEIK
notes: also called anti-SOX10 antibody [clone BC34]; SOX10 [BC34]
Take B1: the binding result is listed as “binds”.
